Laboratory results: the supplement of paper PMC11237882
Some of the results follow. Values are worked out from sequencing counts and are noisy.

T1: Homer1 EVH1 domain
T1 chain: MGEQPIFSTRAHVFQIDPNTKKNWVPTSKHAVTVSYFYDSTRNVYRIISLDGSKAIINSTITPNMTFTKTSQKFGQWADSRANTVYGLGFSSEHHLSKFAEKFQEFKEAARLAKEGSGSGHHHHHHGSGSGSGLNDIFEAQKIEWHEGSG


Molecular target: T1, Homer1 EVH1 domain
Assay: enrichment score (AUC of log2 frequency ratio across FACS sorting rounds) (log2 AUC); higher = stronger enrichment for Homer1 EVH1 binding

| Binder | enrichment score |
| --- | --- |
| PWVNHYSIFFVSVSFFIITAATVGYFIFYSARRLRN | 1.35 |
| SETAAADAALGYIIAFLVLLSTVKLWHLLRLNPKMN | 4.99 |
| VVTLRLPGLESVDHYPILVAVTGILVQLLVRGPASE | 1.36 |
| SHKPDATGGRGLSRLEVAALVLGCLIPLILSVGHQH | 4.17 |
| MTSKFLLVSFILAALRLSTTFSLQPDQQKVLLVSFD | 2.68 |
| MKNILGHAFYQLVVVFTLLFAGEKFFDIDSGRNAPL | 0.868 |
| MNSLSWGAANAVLLLLLLAWASPTFISINRGVRVMK | 3.11 |
| QLIMDVKALTRVLFLYIPLPMFWALLDQQGSRWTLQ | 1.47 |
| MAAPVRRTLLGVAGGWRRFERLWAGSLSSRSLALAD | 2.47 |
| MLNLLLLALPVLASRAYAAPAPGQALQRVGIVGGQE | -2.05 |
| MPNFTDVTEFTLLGLTCRQELQVLFFVVFLAVYMIT | 2.54 |
| LLVAGALTALLPSVKKDKMLMLRREIKSQGKSTMDS | -1.88 |

2 records picked at random from the list so far:

| Binder | enrichment score |
| --- | --- |
| VVTLRLPGLESVDHYPILVAVTGILVQLLVRGPASE | 1.36 |
| MPNFTDVTEFTLLGLTCRQELQVLFFVVFLAVYMIT | 2.54 |
